Measurements reported in PubChem BioAssay AID1224830 (NIAID, 2016).
The whole screen tested about 18,000 reagents; this is a part drawn at random. About 2,900 of all reagents (16%) count as active. 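Calls are made per well; low scores hint the gene aids the LPS response, high scores that it dampens it.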 Reagents against one gene are numbered here. Repeated entries: four replicate wells of each siRNA pool. No sequences are given here.

- Test: 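Genes whose knock-down alters the TNF-alpha reporter response to LPS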 (primary screen)
- Cells: human THP-1 monocytic leukaemia cells, TNF dual-luciferase reporter clone, PMA-differentiated to macrophage-like cells
- Reagent: siRNA pool against human genes, 50 nM
- Timing: LPS for 4 h, given about 3 days after siRNA transfection
- Treatment: bacterial LPS (TLR4 ligand), 10 ng/ml
- Detection: 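TNF firefly reporter luminescence divided by renilla, normalised to the plate median, then turned into a robust z-score for each replicate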
- Scale: TNF reporter robust z-score: higher = stronger TNF reporter response to LPS
- Hit rule: 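Each well counts as active if its z-score is over 2.8 or under -1.5; controls are left without a call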

NOTCH2: TNF reporter robust z-score = -0.16; activity call = inactive
NOTCH2: TNF reporter robust z-score = 0.32; activity call = inactive
NOTCH2: TNF reporter robust z-score = 0.12; activity call = inactive
NOTCH2: TNF reporter robust z-score = 1.41; activity call = inactive
RPL11: TNF reporter robust z-score = -0.91; activity call = inactive
RPL11: TNF reporter robust z-score = -0.13; activity call = inactive
RPL11: TNF reporter robust z-score = -0.63; activity call = inactive
RPL11: TNF reporter robust z-score = -0.37; activity call = inactive
CCNK: TNF reporter robust z-score = 2.21; activity call = inactive
CCNK: TNF reporter robust z-score = 2.46; activity call = inactive
CCNK: TNF reporter robust z-score = 1.43; activity call = inactive
CCNK: TNF reporter robust z-score = 2.09; activity call = inactive
NEK7: TNF reporter robust z-score = -0.03; activity call = inactive
NEK7: TNF reporter robust z-score = 0.97; activity call = inactive
NEK7: TNF reporter robust z-score = -0.29; activity call = inactive
NEK7: TNF reporter robust z-score = 0.41; activity call = inactive
SFTPA1 #1: TNF reporter robust z-score = -0.23; activity call = inactive
SFTPA1 #1: TNF reporter robust z-score = 0.7; activity call = inactive
SFTPA1 #1: TNF reporter robust z-score = 0.37; activity call = inactive
SFTPA1 #2: TNF reporter robust z-score = 0.37; activity call = inactive
SFTPA1 #2: TNF reporter robust z-score = -0.32; activity call = inactive
SFTPA1 #2: TNF reporter robust z-score = -0.31; activity call = inactive
SFTPA1 #2: TNF reporter robust z-score = -0.33; activity call = inactive
HSPD1: TNF reporter robust z-score = 0; activity call = inactive
HSPD1: TNF reporter robust z-score = 0.08; activity call = inactive
HSPD1: TNF reporter robust z-score = -1.15; activity call = inactive
HSPD1: TNF reporter robust z-score = -0.53; activity call = inactive
TLR4: TNF reporter robust z-score = -2.36; activity call = active
TLR4: TNF reporter robust z-score = -2.31; activity call = active
TLR4: TNF reporter robust z-score = -2.3; activity call = active
TLR4: TNF reporter robust z-score = -2.38; activity call = active

Entries listed above called active:
TLR4: TNF reporter robust z-score = -2.36; activity call = active
TLR4: TNF reporter robust z-score = -2.31; activity call = active
TLR4: TNF reporter robust z-score = -2.3; activity call = active
TLR4: TNF reporter robust z-score = -2.38; activity call = active

Further entries:
TCEAL5: TNF reporter robust z-score = 0.69; activity call = inactive
TCEAL5: TNF reporter robust z-score = 1.8; activity call = inactive
TCEAL5: TNF reporter robust z-score = 0.32; activity call = inactive
TCEAL5: TNF reporter robust z-score = 1.42; activity call = inactive
POMK: TNF reporter robust z-score = -1.48; activity call = inactive
POMK: TNF reporter robust z-score = -1.75; activity call = active
POMK: TNF reporter robust z-score = 0.46; activity call = inactive
POMK: TNF reporter robust z-score = 0.69; activity call = inactive
MAGEA2: TNF reporter robust z-score = -0.69; activity call = inactive
MAGEA2: TNF reporter robust z-score = -0.37; activity call = inactive
MAGEA2: TNF reporter robust z-score = -1.01; activity call = inactive
MAGEA2: TNF reporter robust z-score = -1.69; activity call = active
BGLAP: TNF reporter robust z-score = -0.09; activity call = inactive
BGLAP: TNF reporter robust z-score = -0.44; activity call = inactive
BGLAP: TNF reporter robust z-score = -1.09; activity call = inactive
BGLAP: TNF reporter robust z-score = -0.36; activity call = inactive
